Data as given in PubChem BioAssay AID1159578 (Peter MacCallum Cancer Centre, 2015)
Aim: 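siRNA pools altering how lymphatic endothelial cells close a scratch wound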 (primary screen). Cells: human lymphatic endothelial cells. Knock-down reagent: siRNA pool against human genes, 40 nM. Timing: 48 h after transfection. Read-out: 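High-content imaging of dye-stained cells in a scratch assay measures filled wound area and nuclei per well; duplicate means given as ratio to mock and robust z-score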. Scale: migration robust z-score: higher = faster migration into the scratch; nuclei per well: higher = more cells in the well. Active means: 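Migration changed when robust z exceeds 2 or falls below -2 and mean nuclei number is at least 3300; otherwise not called changed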. Meaning of the calls: active = migration changed; inactive = no migration change, or too few cells.
The deposit covers about 18,000 reagents; shown is a random part of them. In the full data, about 1,030 (5.7%) are marked active. 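Inactive calls also include pools with fewer than 3300 nuclei, whose migration was not assessed.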 Raw values are not corrected between plates. Entries without a mark were called inactive. Reagents against one gene are numbered here. Not all columns of the deposit are shown.

no.	gene symbol	reagent	migration robust z-score	migration class with cell-count check	nuclei per well, duplicate mean
1	BZW1 (GeneID 9689)	1	-0.78	migration z between -2 and 2; enough cells	3372
2	SYT8 (GeneID 90019)	1	1.03	migration z between -2 and 2; enough cells	5492
3	DEFB127 (GeneID 140850)	1	0.25	migration z between -2 and 2; enough cells	5799
4	ZFP28 (GeneID 140612)	1	-1.25	migration z between -2 and 2; enough cells	5295
5	TLR10 (GeneID 81793)	1	-0.26	migration z between -2 and 2; enough cells	5520
6	EIF5A2 (GeneID 56648)	1	-0.76	migration z between -2 and 2; enough cells	5262
7	SLC22A25 (GeneID 387601)	1	-2.96 (active)	migration z below -2; enough cells	4091
8	SF3B6 (GeneID 51639)	1	2.29 (active)	migration z above 2; enough cells	5819
9	PCM1 (GeneID 5108)	1	1.48	migration z between -2 and 2; enough cells	6008
10	RHBDL1 (GeneID 9028)	1	1.14	migration z between -2 and 2; enough cells	5513
11	PLOD3 (GeneID 8985)	1	-1.17	migration z between -2 and 2; enough cells	4368
12	SMIM21 (GeneID 284274)	1	-1.89	migration z between -2 and 2; enough cells	3512
13	IQUB (GeneID 154865)	1	-0.66	migration z between -2 and 2; enough cells	6874
14	RCN2 (GeneID 5955)	1	0.82	migration z between -2 and 2; enough cells	6068
15	GGT1 (GeneID 2678)	1	-0.05	migration z between -2 and 2; enough cells	5094
16	SLC37A2 (GeneID 219855)	1	1.25	migration z between -2 and 2; enough cells	3302
17	GFOD1 (GeneID 54438)	1	-0.06	migration z between -2 and 2; enough cells	4950
18	GFOD1 (GeneID 54438)	2	0.22	migration z between -2 and 2; enough cells	5629
19	FMNL2 (GeneID 114793)	1	-1.29	migration z between -2 and 2; enough cells	3692
20	ATG5 (GeneID 9474)	1	-0.8	migration z between -2 and 2; enough cells	5570
21	TBX1 (GeneID 6899)	1	0.5	migration z between -2 and 2; enough cells	5246
22	TCEA2 (GeneID 6919)	1	0.23	migration z between -2 and 2; enough cells	5408
23	LINC02915 (GeneID 400360)	1	-0.52	migration z between -2 and 2; enough cells	5350
24	PTPRA (GeneID 5786)	1	2.36 (active)	migration z above 2; enough cells	4424
25	PABIR2 (GeneID 159090)	1	-0.33	migration z between -2 and 2; enough cells	7684
26	USP8 (GeneID 9101)	1	-0.5	migration z between -2 and 2; enough cells	6437
27	OR5W2 (GeneID 390148)	1	-1.38	migration z between -2 and 2; enough cells	4716
28	TNFAIP8 (GeneID 25816)	1	-0.83	migration z between -2 and 2; enough cells	6562
29	PES1 (GeneID 23481)	1	1.23	migration z between -2 and 2; enough cells	5142
30	HMGCLL1 (GeneID 54511)	1	0.64	migration z between -2 and 2; enough cells	6169
31	CBR1 (GeneID 873)	1	-3.04 (active)	migration z below -2; enough cells	3516
32	CPSF6 (GeneID 11052)	1	0.48	migration z between -2 and 2; enough cells	6464
33	CP (GeneID 1356)	1	0.8	migration z between -2 and 2; enough cells	4822
34	SAFB (GeneID 6294)	1	0.38	migration z between -2 and 2; enough cells	4197
35	ZNF213 (GeneID 7760)	1	-0.05	migration z between -2 and 2; enough cells	7288
36	HERPUD1 (GeneID 9709)	1	-0.42	migration z between -2 and 2; enough cells	5038
37	RBM5 (GeneID 10181)	1	-0.84	migration z between -2 and 2; enough cells	4830
38	MAPRE3 (GeneID 22924)	1	1.22	migration z between -2 and 2; enough cells	6105

6 entries from above in another layout:
gene symbol,reagent,migration robust z-score,migration class with cell-count check,"nuclei per well, duplicate mean"
TLR10 (GeneID 81793),1,-0.26,migration z between -2 and 2; enough cells,5520
EIF5A2 (GeneID 56648),1,-0.76,migration z between -2 and 2; enough cells,5262
SLC22A25 (GeneID 387601),1,-2.96 (active),migration z below -2; enough cells,4091
SF3B6 (GeneID 51639),1,2.29 (active),migration z above 2; enough cells,5819
PCM1 (GeneID 5108),1,1.48,migration z between -2 and 2; enough cells,6008
RHBDL1 (GeneID 9028),1,1.14,migration z between -2 and 2; enough cells,5513

The listing continues.
no.	gene symbol	reagent	migration robust z-score	migration class with cell-count check	nuclei per well, duplicate mean
39	MAGEA4 (GeneID 4103)	1	0.88	migration z between -2 and 2; enough cells	5858
40	ZMYM3 (GeneID 9203)	1	0.54	migration z between -2 and 2; enough cells	5166
41	ANKRD39 (GeneID 51239)	1	0.68	migration z between -2 and 2; enough cells	6222
42	AGMAT (GeneID 79814)	1	-0.16	migration z between -2 and 2; enough cells	5542
43	ANXA4 (GeneID 307)	1	0.44	migration z between -2 and 2; enough cells	3979
44	COX5B (GeneID 1329)	1	0.68	migration z between -2 and 2; enough cells	5014
45	IQCK (GeneID 124152)	1	-0.48	migration z between -2 and 2; enough cells	5496
46	MLH1 (GeneID 4292)	1	0.34	migration z between -2 and 2; enough cells	6044
47	ZCCHC12 (GeneID 170261)	1	-0.2	migration z between -2 and 2; enough cells	7380
48	THYN1 (GeneID 29087)	1	-5.58	under 3300 nuclei; migration not judged	1282
49	ATP23 (GeneID 91419)	1	2.12 (active)	migration z above 2; enough cells	5723
50	MUC13 (GeneID 56667)	1	1.29	migration z between -2 and 2; enough cells	6555
51	MGAM (GeneID 8972)	1	0	migration z between -2 and 2; enough cells	6302
52	TIGD4 (GeneID 201798)	1	0.28	migration z between -2 and 2; enough cells	5832
53	PLPP1 (GeneID 8611)	1	-2.12 (active)	migration z below -2; enough cells	7196
54	TMEM115 (GeneID 11070)	1	-0.13	migration z between -2 and 2; enough cells	6094
55	MOGAT2 (GeneID 80168)	1	-0.13	migration z between -2 and 2; enough cells	5908
56	LTBR (GeneID 4055)	1	-0.96	migration z between -2 and 2; enough cells	5643
57	ACE2 (GeneID 59272)	1	2.13 (active)	migration z above 2; enough cells	5839
58	CCL3L1 (GeneID 6349)	1	1.49	migration z between -2 and 2; enough cells	5576
59	ICOS (GeneID 29851)	1	-1.63	migration z between -2 and 2; enough cells	5854
60	KRIT1 (GeneID 889)	1	0.16	migration z between -2 and 2; enough cells	6460
61	CCDC74A (GeneID 90557)	1	-0.29	migration z between -2 and 2; enough cells	5536
62	TNNT2 (GeneID 7139)	1	1.18	migration z between -2 and 2; enough cells	5644
63	HSPA14 (GeneID 51182)	1	-0.2	migration z between -2 and 2; enough cells	4492
64	NIBAN2 (GeneID 64855)	1	-0.38	migration z between -2 and 2; enough cells	5590
65	USE1 (GeneID 55850)	1	-0.46	migration z between -2 and 2; enough cells	4944
66	ACAN (GeneID 176)	1	0.34	migration z between -2 and 2; enough cells	7359
67	HSPA13 (GeneID 6782)	1	-0.98	migration z between -2 and 2; enough cells	5473
68	ZBTB32 (GeneID 27033)	1	0.31	migration z between -2 and 2; enough cells	5515
69	HARBI1 (GeneID 283254)	1	-1.39	migration z between -2 and 2; enough cells	6307
70	CPNE4 (GeneID 131034)	1	-0.98	migration z between -2 and 2; enough cells	4988
71	DDX41 (GeneID 51428)	1	-0.7	migration z between -2 and 2; enough cells	5182
72	CELSR3 (GeneID 1951)	1	-0.62	migration z between -2 and 2; enough cells	5395
73	HBEGF (GeneID 1839)	1	-1.48	migration z between -2 and 2; enough cells	4104
